Data as given in US20190284272A1 (published 2019).
Results are given in words; binding and its absence hold for the method and conditions named. Binding can be weak; no strength is given.

How the values were obtained:
[1] = molecular target: wildtype feline IL-31 protein (Feline_IL31_wildtype) (feline); assay: SPR (Biacore), FIG. 2 Section A
[2] = molecular target: canine IL-31 protein (Canine_IL31) (canine); assay: SPR (Biacore), FIG. 2 Section C
[3] = molecular target: wildtype feline IL-31 protein (Feline_IL31_wildtype) (feline); assay: SPR (Biacore), FIG. 2 Sections A and C
[4] = molecular target: wildtype feline IL-31 protein (Feline_IL31_wildtype) (feline); assay: SPR (Biacore), FIG. 2 Section C
[5] = molecular target: wildtype feline IL-31 protein (Feline_IL31_wildtype) (feline); assay: Biacore, IL-31 surface, single antibody concentration (FIG. 4)

Binder | binding [2] | binding [3] | other results
mouse: feline 11E12 chimera (antibody) heavy: QVQLQQSGAELVKPGASVKLSCKASGYTFKYYDINWVRQRPEQGLEWIGWIFPGDGGTKYNETFKGKATLTTDKSSSTAYMQLSRLTSEDSAVYFCARGGTSVIRDAMDYWGQGTSVTVSSASTTAPSVFPLAPSCGTTSGATVALACLVLGYFPEPVTVSWNSGALTSGVHTFPAVLQASGLYSLSSMVTVPSSRWLSDTFTCNVAHPPSNTKVDKTVRKTDHPPGPKPCDCPKCPPPEAAGAPSIFIFPPKPKDTLSISRTPEVTCLVVDLGPDDSDVQITWFVDNTQVYTAKTSPREEQFNSTYRVVSVLPILHQDWLKGKEFKCKVNSKSLPSPIERTISKAKGQPHEPQVYVLPPAQEELSRNKVSVTCLIKSFHPPDIAVEWEITGQPEPENNYRTTPPQLDSDGTYFVYSKLSVDRSHWQRGNTYTCSVSHEALHSHHTQKSLTQSPGK light: DIVLTQSPASLAVSLGQRATISCRASESVDNYGISFMHWYQQKPGQPPKLLIYRASNLESGIPARFSGSGSRTDFTLTINPVETDDVATYYCQQSNKDPLTFGAGTKLELKRSDAQPSVFLFQPSLDELHTGSASIVCILNDFYPKEVNVKWKVDGVVQNKGIQESTTEQNSKDSTYSLSSTLTMSSTEYQSHEKFSCEVTHKSLASTLVKSFQRSECQRE |  |  | binding [1]: binds
Feline 15H05 1.1 (antibody, V domains shown) VH: QVLLVQSGAEVRTPGASVKIFCKASGYSFTSYTIHWLRQAPAQGLEWMGNINPTSGYTENNQRFKDRLTLTADTSTNTAYMELSSLRSADTAMYYCARWGFKYDGEWSFDVWGAGTTVTVSS VL: EIQMTQSPSSLSASPGDRVTITCRASQGISIWLSWYQQKPGKVPKLLIYKASNLHIGVPSRFSGSGSGTDFTLTISSLEPEDAATYYCLQSQTYPLTFGGGTKLEIK | binds | binds | 
Feline 15H05 1.1 FW1_3 (antibody, V domains shown) VH: QVLLVQSGAEVRTPGASVKIFCKASGYSFTSYTIHWLRQAPAQGLEWMGNINPTSGYTENNQRFKDRLTLTADTSTNTAYMELSSLRSADTAMYYCARWGFKYDGEWSFDVWGAGTTVTVSS VL: DIQMNQSPSSLSASLGDTITVTCRASQGISIWLSWYQQKPGKVPKLLIYKASNLHIGVPPRFSGSGSGTHFTLTITSLQPEDIATYYCLQSQTYPLTFGGGTKLEIK | binds |  | binding [4]: binds
Feline 15H05 1.2 (antibody, V domains shown) VH: QVLLVQSGAEVRTPGASVKIFCKASGYSFTSYTIHWLRQAPAQGLEWMGNINPTSGYTENNQRFKDRLTLTADTSTNTAYMELSSLRSADTAMYYCARWGFKYDGEWSFDVWGAGTTVTVSS VL: EITMTQSPGSLAGSPGQQVTMNCRASQGISIWLSWYQQKPGQHPKLLIYKASNLHIGVPDRFSGSGSGTDFTLTISNLQAEDVASYYCLQSQTYPLTFGGGTKLEIK |  | binds | 
Feline 15H05 1.1 FW1_2 (antibody, V domains shown) VH: QVLLVQSGAEVRTPGASVKIFCKASGYSFTSYTIHWLRQAPAQGLEWMGNINPTSGYTENNQRFKDRLTLTADTSTNTAYMELSSLRSADTAMYYCARWGFKYDGEWSFDVWGAGTTVTVSS VL: DIQMNQSPSSLSASLGDTITVTCRASQGISIWLSWYQQKPGNIPKVLINKASNLHIGVPSRFSGSGSGTDFTLTISSLEPEDAATYYCLQSQTYPLTFGGGTKLEIK | binds |  | binding [4]: binds
Feline 15H05 1.1 FW1 (antibody, V domains shown) VH: QVLLVQSGAEVRTPGASVKIFCKASGYSFTSYTIHWLRQAPAQGLEWMGNINPTSGYTENNQRFKDRLTLTADTSTNTAYMELSSLRSADTAMYYCARWGFKYDGEWSFDVWGAGTTVTVSS VL: DIQMNQSPSSLSASLGDTITVTCRASQGISIWLSWYQQKPGKVPKLLIYKASNLHIGVPSRFSGSGSGTDFTLTISSLEPEDAATYYCLQSQTYPLTFGGGTKLEIK | binds |  | binding [4]: binds
Feline 15H05 1.1 FW3 (antibody, V domains shown) VH: QVLLVQSGAEVRTPGASVKIFCKASGYSFTSYTIHWLRQAPAQGLEWMGNINPTSGYTENNQRFKDRLTLTADTSTNTAYMELSSLRSADTAMYYCARWGFKYDGEWSFDVWGAGTTVTVSS VL: EIQMTQSPSSLSASPGDRVTITCRASQGISIWLSWYQQKPGKVPKLLIYKASNLHIGVPPRFSGSGSGTHFTLTITSLQPEDIATYYCLQSQTYPLTFGGGTKLEIK | binds |  | binding [4]: binds
Feline 15H05 1.3 (antibody, V domains shown) VH: QVLLVQSGAEVRTPGASVKIFCKASGYSFTSYTIHWLRQAPAQGLEWMGNINPTSGYTENNQRFKDRLTLTADTSTNTAYMELSSLRSADTAMYYCARWGFKYDGEWSFDVWGAGTTVTVSS VL: EVVLTQSSAFLSRTLKEKATITCRASQGISIWLSWYQQKPNQAPKLLVKKASNLHIGAPSRFSGSGSGTDFTLTISSPEPEDAATYYCLQSQTYPLTFGGGTKLGDQ |  | binds | 
ZIL154 (antibody, V domains shown, Recombinant fully canine IgG (65_1), HEK 293; also called CAN-ZIL154) VH: EVHLVESGGDLVKPWGSLRLSCVASGFTFSDRGMSWVRQSPGKGLQWVAYIRYDGSRTDYADAVEGRFTISRDNAKNTLYLQMNSLRAEDTAVYYCARWDGSSFDYWGQGTLVTVSS VL: DIVVTQTPLSLSVSPGETASFSCKASQSLLHSDGNTYLDWFRQKPGQSPQRLIYKVSNRDPGVPDRFSGSGSGTDFTLRISGVEADDAGLYYCMQAIHFPLTFGAGTKVELKR |  |  | binding [5]: binds
mouse: canine 11E12 chimera (antibody) heavy: QVQLQQSGAELVKPGASVKLSCKASGYTFKYYDINWVRQRPEQGLEWIGWIFPGDGGTKYNETFKGKATLTTDKSSSTAYMQLSRLTSEDSAVYFCARGGTSVIRDAMDYWGQGTSVTVSSASTTAPSVFPLAPSCGSTSGSTVALACLVSGYFPEPVTVSWNSGSLTSGVHTFPSVLQSSGLYSLSSMVTVPSSRWPSETFTCNVAHPASKTKVDKPVPKRENGRVPRPPDCPKCPAPEMLGGPSVFIFPPKPKDTLLIARTPEVTCVVVDLDPEDPEVQISWFVDGKQMQTAKTQPREEQFNGTYRVVSVLPIGHQDWLKGKQFTCKVNNKALPSPIERTISKARGQAHQPSVYVLPPSREELSKNTVSLTCLIKDFFPPDIDVEWQSNGQQEPESKYRTTPPQLDEDGSYFLYSKLSVDKSRWQRGDTFICAVMHEALHNHYTQESLSHSPGK light: DIVLTQSPASLAVSLGQRATISCRASESVDNYGISFMHWYQQKPGQPPKLLIYRASNLESGIPARFSGSGSRTDFTLTINPVETDDVATYYCQQSNKDPLTFGAGTKLELKRNDAQPAVYLFQPSPDQLHTGSASVVCLLNSFYPKDINVKWKVDGVIQDTGIQESVTEQDKDSTYSLSSTLTMSSTEYLSHELYSCEITHKSLPSTLIKSFQRSEC |  |  | binding [1]: binds

Now from value to binder, other results behind:

binding [2] | binding [3] | Binder | other results
 | binds | Feline 15H05 2.3 (antibody, V domains shown) VH: QVLLVQSGAEVRTPGASVKIFCKASGYGFTSYTIHWVRQSPAQGLEWMGNINPTSGYTENNQRFKDRLTLTADTSTNTAYMELSSLRSADTAMYYCARWGFKYDGEWSFDVWGAGTTVTVSS VL: EVVLTQSSAFLSRTLKEKATITCRASQGISIWLSWYQQKPNQAPKLLVKKASNLHIGAPSRFSGSGSGTDFTLTISSPEPEDAATYYCLQSQTYPLTFGGGTKLGDQ | 
binds | binds | Feline 15H05 2.2 (antibody, V domains shown) VH: QVLLVQSGAEVRTPGASVKIFCKASGYGFTSYTIHWVRQSPAQGLEWMGNINPTSGYTENNQRFKDRLTLTADTSTNTAYMELSSLRSADTAMYYCARWGFKYDGEWSFDVWGAGTTVTVSS VL: EITMTQSPGSLAGSPGQQVTMNCRASQGISIWLSWYQQKPGQHPKLLIYKASNLHIGVPDRFSGSGSGTDFTLTISNLQAEDVASYYCLQSQTYPLTFGGGTKLEIK | 
binds | binds | Feline 15H05 3.2 (antibody, V domains shown) VH: QVLLVQSGAEVRKPGASVKIFCKASGYSFTSYTIHWLRQAPEQGLEWMGNINPTSGYTENNQRFKDRLTLTADTSTNTAYMELSSLRSADTAMYYCARWGFKYDGEWSFDVWGAGTTVTVSS VL: EITMTQSPGSLAGSPGQQVTMNCRASQGISIWLSWYQQKPGQHPKLLIYKASNLHIGVPDRFSGSGSGTDFTLTISNLQAEDVASYYCLQSQTYPLTFGGGTKLEIK | 
 | binds | Feline 15H05 3.3 (antibody, V domains shown) VH: QVLLVQSGAEVRKPGASVKIFCKASGYSFTSYTIHWLRQAPEQGLEWMGNINPTSGYTENNQRFKDRLTLTADTSTNTAYMELSSLRSADTAMYYCARWGFKYDGEWSFDVWGAGTTVTVSS VL: EVVLTQSSAFLSRTLKEKATITCRASQGISIWLSWYQQKPNQAPKLLVKKASNLHIGAPSRFSGSGSGTDFTLTISSPEPEDAATYYCLQSQTYPLTFGGGTKLGDQ | 
 | binds | Feline 15H05 2.1 (antibody, V domains shown) VH: QVLLVQSGAEVRTPGASVKIFCKASGYGFTSYTIHWVRQSPAQGLEWMGNINPTSGYTENNQRFKDRLTLTADTSTNTAYMELSSLRSADTAMYYCARWGFKYDGEWSFDVWGAGTTVTVSS VL: EIQMTQSPSSLSASPGDRVTITCRASQGISIWLSWYQQKPGKVPKLLIYKASNLHIGVPSRFSGSGSGTDFTLTISSLEPEDAATYYCLQSQTYPLTFGGGTKLEIK | 
 | binds | Feline 15H05 3.1 (antibody, V domains shown) VH: QVLLVQSGAEVRKPGASVKIFCKASGYSFTSYTIHWLRQAPEQGLEWMGNINPTSGYTENNQRFKDRLTLTADTSTNTAYMELSSLRSADTAMYYCARWGFKYDGEWSFDVWGAGTTVTVSS VL: EIQMTQSPSSLSASPGDRVTITCRASQGISIWLSWYQQKPGKVPKLLIYKASNLHIGVPSRFSGSGSGTDFTLTISSLEPEDAATYYCLQSQTYPLTFGGGTKLEIK | 
